For this test, the system named is MA-46 (MA) (DNA, aptamer) CTTACGACTCAGGCATTTTGCCGGGTAACGAAGTTACTGTCGTAAG
As to the kind of experiment: ITC. The following applies: 20 mM Na+, 5 mM Mg2+.

As to `CN1CC[C@]23c4c5ccc(O)c4O[C@H]2[C@@H](O)C=C[C@H]3[C@H]1C5`, the binding result was “no”.

These data come from publication PMC7672472 (2020).
